Measured values published in publication doi:10.1101/2020.09.01.275982.
Substitutions are numbered along the chain they refer to. Names may count otherwise. These are yes or no findings as the source states them, for the method shown. Some binding calls cover weakened binding; strength is not graded here.

B1: FtsL (protein, UniProt P0AEN4 1-121)
chain: MISRVTEALSKVKGSMGSHERHALPGVIGDDLLRFGKLPLCLFICIILTAVTVVTTAHHTRLLTAQREQLVLERDALDIEWRNLILEENALGDHSRVERIATEKLQMQHVDPSQENIVVQK
B2: FtsL^Δ1-30/G92D/E88K (domain or fragment, UniProt P0AEN4 30-121)
chain: DDLLRFGKLPLCLFICIILTAVTVVTTAHHTRLLTAQREQLVLERDALDIEWRNLILEKNALDDHSRVERIATEKLQMQHVDPSQENIVVQK
B3: FtsL^Δ1-30 (domain or fragment, UniProt P0AEN4 30-121)
chain: B2 chain with K59E, D63G
B4: FtsL^Δ1-30 with the two activation mutations and ftsL^E87K (domain or fragment, UniProt P0AEN4 30-121)
chain: B2 chain with E58K

What follows are binders tested against T1, FtsI (E. coli) (UniProt P0AD68) (assay: two-hybrid).
T1 sequence: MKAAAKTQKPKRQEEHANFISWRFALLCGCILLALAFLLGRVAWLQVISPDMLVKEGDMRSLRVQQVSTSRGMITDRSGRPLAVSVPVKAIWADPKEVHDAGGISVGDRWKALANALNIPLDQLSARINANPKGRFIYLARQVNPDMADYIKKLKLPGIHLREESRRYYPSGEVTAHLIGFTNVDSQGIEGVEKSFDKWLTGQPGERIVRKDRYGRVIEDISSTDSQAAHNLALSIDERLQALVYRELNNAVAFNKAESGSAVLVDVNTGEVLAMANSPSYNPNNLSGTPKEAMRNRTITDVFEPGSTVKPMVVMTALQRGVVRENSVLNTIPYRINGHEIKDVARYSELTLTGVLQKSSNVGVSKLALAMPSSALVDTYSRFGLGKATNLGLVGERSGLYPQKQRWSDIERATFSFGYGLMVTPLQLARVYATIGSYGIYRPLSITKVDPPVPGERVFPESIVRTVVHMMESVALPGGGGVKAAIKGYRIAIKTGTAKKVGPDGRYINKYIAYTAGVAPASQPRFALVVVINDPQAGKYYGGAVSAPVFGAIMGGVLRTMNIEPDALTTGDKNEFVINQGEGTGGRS
In the case of B1, the binding is reported as “binds”. In the case of B2, the binding is reported as “binds”. For B3, the binding was “no binding”. B4 was tested, and the binding was “no binding”.

Each binder was assayed against T2, FtsW (E. coli) (UniProt P0ABG4) (assay: two-hybrid).
T2 sequence: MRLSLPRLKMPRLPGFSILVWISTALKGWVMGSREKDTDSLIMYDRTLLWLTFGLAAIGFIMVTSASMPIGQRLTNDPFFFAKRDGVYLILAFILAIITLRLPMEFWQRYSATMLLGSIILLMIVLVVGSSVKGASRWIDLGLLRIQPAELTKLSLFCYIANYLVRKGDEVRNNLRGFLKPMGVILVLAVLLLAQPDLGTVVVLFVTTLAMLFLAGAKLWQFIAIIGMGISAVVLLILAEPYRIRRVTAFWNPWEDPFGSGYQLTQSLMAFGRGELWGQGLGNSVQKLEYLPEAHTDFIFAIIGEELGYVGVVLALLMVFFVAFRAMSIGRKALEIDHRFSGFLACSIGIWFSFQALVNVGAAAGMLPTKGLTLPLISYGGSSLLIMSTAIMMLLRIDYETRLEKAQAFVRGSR
With B1 the binding was “binds”. In the case of B2, the binding is reported as “binds weakly”. For B3, the binding was “no binding”. For B4, the binding was “no binding”.
